Experimental data from article PMC10509483.
Results are given in words; binding and its absence hold for the method and conditions named. In cells and extracts the contact can be indirect. These calls come from enrichment with a bait or labelling near it, and not all partners need be listed.

The chains behind the UniProt entries cited, without tags or fusion partners.
UniProt P63172: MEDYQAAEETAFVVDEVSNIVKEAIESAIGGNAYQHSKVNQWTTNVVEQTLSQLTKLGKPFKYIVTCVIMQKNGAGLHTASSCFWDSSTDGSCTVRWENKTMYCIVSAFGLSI
UniProt P07355: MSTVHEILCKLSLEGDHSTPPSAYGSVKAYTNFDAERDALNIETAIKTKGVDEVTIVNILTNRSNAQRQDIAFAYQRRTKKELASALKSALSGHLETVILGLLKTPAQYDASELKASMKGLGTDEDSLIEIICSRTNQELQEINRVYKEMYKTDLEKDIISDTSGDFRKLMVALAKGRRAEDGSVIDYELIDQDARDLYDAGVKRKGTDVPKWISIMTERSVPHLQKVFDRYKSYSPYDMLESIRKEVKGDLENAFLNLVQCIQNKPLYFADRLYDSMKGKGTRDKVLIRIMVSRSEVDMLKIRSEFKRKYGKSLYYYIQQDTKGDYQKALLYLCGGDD

Target: Tctex-1-GFP fusion (UniProt P63172)
Test: affinity purification with mass spectrometry; GFP immunoprecipitates from RPE-1 cells stably expressing Tctex-1-GFP, 2 h post-serum readdition; proteomics

annexin A2 isoform 2 (from UniProt P07355 1-339)
binding: binds
